Assay [1] has as its target T1, GFP-TSN2 (Arabidopsis thaliana) (UniProt Q9FLT0).
T1 sequence: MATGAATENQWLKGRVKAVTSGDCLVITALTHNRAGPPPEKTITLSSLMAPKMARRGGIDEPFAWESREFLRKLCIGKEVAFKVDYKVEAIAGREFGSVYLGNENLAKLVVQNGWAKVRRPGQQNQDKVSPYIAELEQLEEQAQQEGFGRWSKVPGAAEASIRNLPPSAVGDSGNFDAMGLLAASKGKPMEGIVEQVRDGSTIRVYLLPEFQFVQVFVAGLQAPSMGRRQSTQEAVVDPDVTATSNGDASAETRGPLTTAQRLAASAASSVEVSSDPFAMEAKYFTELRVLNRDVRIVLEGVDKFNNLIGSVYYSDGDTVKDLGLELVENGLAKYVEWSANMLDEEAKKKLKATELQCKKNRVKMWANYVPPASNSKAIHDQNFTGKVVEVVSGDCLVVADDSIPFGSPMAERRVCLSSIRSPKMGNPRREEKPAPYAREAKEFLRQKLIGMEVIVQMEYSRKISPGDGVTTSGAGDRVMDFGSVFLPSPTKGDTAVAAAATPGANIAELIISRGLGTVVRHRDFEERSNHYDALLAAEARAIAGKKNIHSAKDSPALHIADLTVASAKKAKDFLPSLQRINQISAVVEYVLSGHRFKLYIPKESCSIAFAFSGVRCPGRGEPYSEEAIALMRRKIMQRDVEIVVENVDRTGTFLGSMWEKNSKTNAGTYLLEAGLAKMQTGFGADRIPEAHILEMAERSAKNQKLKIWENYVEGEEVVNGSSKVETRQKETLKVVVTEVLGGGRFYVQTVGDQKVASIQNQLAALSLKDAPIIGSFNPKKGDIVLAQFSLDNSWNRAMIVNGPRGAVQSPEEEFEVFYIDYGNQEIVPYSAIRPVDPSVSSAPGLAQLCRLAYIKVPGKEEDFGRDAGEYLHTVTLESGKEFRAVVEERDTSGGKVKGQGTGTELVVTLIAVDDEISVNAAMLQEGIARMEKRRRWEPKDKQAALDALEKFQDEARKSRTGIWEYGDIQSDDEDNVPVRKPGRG
Kind of assay: co-IP.

The target in assay [2] is T2, GFP-TSN1 (Arabidopsis thaliana) (UniProt Q8VZG7).
T2 sequence: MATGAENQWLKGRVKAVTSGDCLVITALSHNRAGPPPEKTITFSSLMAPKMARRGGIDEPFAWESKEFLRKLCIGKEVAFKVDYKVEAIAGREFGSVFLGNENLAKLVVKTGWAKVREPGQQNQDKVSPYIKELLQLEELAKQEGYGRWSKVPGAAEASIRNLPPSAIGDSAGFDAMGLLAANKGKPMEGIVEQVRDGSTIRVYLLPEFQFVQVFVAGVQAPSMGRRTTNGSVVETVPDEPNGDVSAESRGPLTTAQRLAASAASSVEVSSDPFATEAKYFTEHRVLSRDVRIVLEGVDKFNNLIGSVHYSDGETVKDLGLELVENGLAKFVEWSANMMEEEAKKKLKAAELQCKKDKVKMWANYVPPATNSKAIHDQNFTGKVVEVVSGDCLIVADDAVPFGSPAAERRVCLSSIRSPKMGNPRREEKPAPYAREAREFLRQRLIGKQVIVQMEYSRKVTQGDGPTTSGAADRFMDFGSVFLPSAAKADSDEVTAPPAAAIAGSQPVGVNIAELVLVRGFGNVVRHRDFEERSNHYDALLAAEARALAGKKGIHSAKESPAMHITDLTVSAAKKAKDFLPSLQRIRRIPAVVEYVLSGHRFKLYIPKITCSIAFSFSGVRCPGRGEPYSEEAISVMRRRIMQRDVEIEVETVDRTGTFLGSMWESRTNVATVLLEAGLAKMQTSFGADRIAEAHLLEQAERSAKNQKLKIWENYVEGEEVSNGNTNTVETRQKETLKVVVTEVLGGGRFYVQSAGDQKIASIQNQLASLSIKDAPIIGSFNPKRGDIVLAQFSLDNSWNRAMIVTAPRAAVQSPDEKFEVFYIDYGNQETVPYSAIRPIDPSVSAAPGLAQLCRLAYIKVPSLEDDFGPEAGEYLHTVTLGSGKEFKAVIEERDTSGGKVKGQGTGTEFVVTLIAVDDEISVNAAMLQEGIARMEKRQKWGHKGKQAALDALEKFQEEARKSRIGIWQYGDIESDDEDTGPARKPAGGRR
Kind of assay: co-IP.

Assay [3] addresses T3, SnRK1.2 fused to YFP or CFP (FRET construct) (Arabidopsis thaliana) (UniProt P92958).
T3 sequence: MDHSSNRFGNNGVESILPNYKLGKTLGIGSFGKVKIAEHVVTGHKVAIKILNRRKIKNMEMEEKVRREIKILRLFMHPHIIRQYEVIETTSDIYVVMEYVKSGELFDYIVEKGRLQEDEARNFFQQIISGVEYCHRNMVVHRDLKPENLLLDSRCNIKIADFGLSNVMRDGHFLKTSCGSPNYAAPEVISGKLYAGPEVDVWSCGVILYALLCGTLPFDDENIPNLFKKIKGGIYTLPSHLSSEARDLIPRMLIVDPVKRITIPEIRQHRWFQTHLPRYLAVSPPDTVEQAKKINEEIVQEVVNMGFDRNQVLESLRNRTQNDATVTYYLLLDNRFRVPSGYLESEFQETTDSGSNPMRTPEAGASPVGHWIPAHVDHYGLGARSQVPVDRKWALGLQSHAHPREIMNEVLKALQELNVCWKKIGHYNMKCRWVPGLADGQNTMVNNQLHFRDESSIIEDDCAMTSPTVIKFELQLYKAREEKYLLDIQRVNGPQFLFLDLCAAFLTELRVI
Kind of assay: FRET or BRET. In general terms: BRET reads energy transfer from a luciferase to a nearby fluorophore.

These are yes or no findings as the source states them, for the method shown. Binding seen in cells or lysates may run through a third protein. Some entries that bind do so weakly or less than the wild type. Sequences can lack the tags named with a protein.

B1: Myc-RH12 (protein, UniProt Q9M2E0 1-498)
chain: MNTNRGRYPPGVGTGRGAPPNPDYHQSYRQQQPPQDQQYVQRGYSQNPQQMQLQQQHQQQQQQQQWSRRPQLPGNASNANEVVQQTTQPEASSDANGQDWKATLRLPPPDTRYQTADVTATKGNEFEDYFLKRDLLKGIYEKGFEKPSPIQEESIPIALTGSDILARAKNGTGKTGAFCIPVLEKIDPNNNVIQAMILVPTRELALQTSQVCKELSKYLNIQVMVTTGGTSLRDDIMRLHQPVHLLVGTPGRILDLTKKGVCVLKDCAMLVMDEADKLLSAEFQPSLEELIQFLPQNRQFLMFSATFPVTVKAFKDRHLRKPYVINLMDQLTLMGVTQYYAFVEERQKVHCLNTLFSKLQINQSIIFCNSVNRVELLAKKITELGYSCFYIHAKMVQDHRNRVFHEFRNGACRNLVCTDLFTRGIDIQAVNVVINFDFPRTSESYLHRVGRSGRFGHLGLAVNLVTYEDRFKMYQTEQELGTEIKPIPSNIDQAIYCQ
Consider B1, for which the binding result in assay [1] and in assay [2] was “binds” each time.

B2: TSN2 fused to YFP or CFP (FRET construct) (protein, UniProt Q9FLT0 1-985)
chain: MATGAATENQWLKGRVKAVTSGDCLVITALTHNRAGPPPEKTITLSSLMAPKMARRGGIDEPFAWESREFLRKLCIGKEVAFKVDYKVEAIAGREFGSVYLGNENLAKLVVQNGWAKVRRPGQQNQDKVSPYIAELEQLEEQAQQEGFGRWSKVPGAAEASIRNLPPSAVGDSGNFDAMGLLAASKGKPMEGIVEQVRDGSTIRVYLLPEFQFVQVFVAGLQAPSMGRRQSTQEAVVDPDVTATSNGDASAETRGPLTTAQRLAASAASSVEVSSDPFAMEAKYFTELRVLNRDVRIVLEGVDKFNNLIGSVYYSDGDTVKDLGLELVENGLAKYVEWSANMLDEEAKKKLKATELQCKKNRVKMWANYVPPASNSKAIHDQNFTGKVVEVVSGDCLVVADDSIPFGSPMAERRVCLSSIRSPKMGNPRREEKPAPYAREAKEFLRQKLIGMEVIVQMEYSRKISPGDGVTTSGAGDRVMDFGSVFLPSPTKGDTAVAAAATPGANIAELIISRGLGTVVRHRDFEERSNHYDALLAAEARAIAGKKNIHSAKDSPALHIADLTVASAKKAKDFLPSLQRINQISAVVEYVLSGHRFKLYIPKESCSIAFAFSGVRCPGRGEPYSEEAIALMRRKIMQRDVEIVVENVDRTGTFLGSMWEKNSKTNAGTYLLEAGLAKMQTGFGADRIPEAHILEMAERSAKNQKLKIWENYVEGEEVVNGSSKVETRQKETLKVVVTEVLGGGRFYVQTVGDQKVASIQNQLAALSLKDAPIIGSFNPKKGDIVLAQFSLDNSWNRAMIVNGPRGAVQSPEEEFEVFYIDYGNQEIVPYSAIRPVDPSVSSAPGLAQLCRLAYIKVPGKEEDFGRDAGEYLHTVTLESGKEFRAVVEERDTSGGKVKGQGTGTELVVTLIAVDDEISVNAAMLQEGIARMEKRRRWEPKDKQAALDALEKFQDEARKSRTGIWEYGDIQSDDEDNVPVRKPGRG
With B2, the binding entry in assay [3] is recorded as “binds”.

These data come from doi:10.1101/2020.02.20.955922.
